{"source": "PubChem BioAssay AID652272 (Drosophila RNAi Screening Center, 2013)", "assay": "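Genes whose knock-down decreases or increases Hedgehog reporter output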 (primary screen)", "cells": "Drosophila clone 8 (Cl8) cells", "reagents": "long dsRNA against Drosophila genes", "read-out": "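Plate reader light from a firefly reporter under a ptc promoter fragment that responds to Hedgehog, with Renilla light as transfection reference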", "reading the numbers": "firefly Hh reporter signal: higher = more ptc reporter light; Renilla reference signal: higher = more Renilla control light", "hit rule": "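Called a hit if the two-replicate mean z-score lies below -2 or above +3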", "calls": "active = hit: reporter lowered or raised; inactive = not a hit", "note": "The screen tested about 21,000 reagents; shown is an unselected part of those that have a named target and a result. In the full data, 503 (2.4%) are marked active. 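Raw plate light values, not normalised; calls rest on replicate z-scores that were not deposited; hits include reporter decreases as well as increases.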 Names joined by + are all predicted targets of the reagent. No sequences are given here. The record does not give: the amount of reagent, the time to read-out."}
{"target": "eIF3f1", "dsRNA": "DRSC12328", "firefly Hh reporter signal, replicate 1": 56668, "firefly Hh reporter signal, replicate 2": 90112, "Renilla reference signal, replicate 1": 1740, "Renilla reference signal, replicate 2": 2512, "Outcome": "inactive"}
{"target": "Diedel3", "dsRNA": "DRSC19544", "firefly Hh reporter signal, replicate 1": 58869, "firefly Hh reporter signal, replicate 2": 2.26e5, "Renilla reference signal, replicate 1": 1825, "Renilla reference signal, replicate 2": 10520, "Outcome": "inactive"}
{"target": "CG13455", "dsRNA": "DRSC10002", "firefly Hh reporter signal, replicate 1": 84342, "Renilla reference signal, replicate 1": 3779, "Renilla reference signal, replicate 2": 2171, "Outcome": "inactive"}
{"target": "RpL28 + snoRNA:Or-CD12", "dsRNA": "DRSC08293", "firefly Hh reporter signal, replicate 1": 31255, "firefly Hh reporter signal, replicate 2": 23025, "Renilla reference signal, replicate 1": 1914, "Renilla reference signal, replicate 2": 2881, "Outcome": "active"}
{"target": "EMC2B", "dsRNA": "DRSC15506", "firefly Hh reporter signal, replicate 1": 35526, "firefly Hh reporter signal, replicate 2": 68563, "Renilla reference signal, replicate 1": 840, "Renilla reference signal, replicate 2": 1968, "Outcome": "inactive"}
{"target": "Cep89", "dsRNA": "DRSC07110", "firefly Hh reporter signal, replicate 1": 92080, "firefly Hh reporter signal, replicate 2": 33002, "Renilla reference signal, replicate 1": 2491, "Renilla reference signal, replicate 2": 330, "Outcome": "inactive"}
{"target": "etaTry", "dsRNA": "DRSC07613", "firefly Hh reporter signal, replicate 1": 77893, "firefly Hh reporter signal, replicate 2": 36796, "Renilla reference signal, replicate 1": 1917, "Renilla reference signal, replicate 2": 2979, "Outcome": "inactive"}
{"target": "CG15814", "dsRNA": "DRSC19730", "firefly Hh reporter signal, replicate 1": 90976, "firefly Hh reporter signal, replicate 2": 68005, "Renilla reference signal, replicate 1": 2698, "Renilla reference signal, replicate 2": 2381, "Outcome": "active"}
{"target": "karr", "dsRNA": "DRSC20681", "firefly Hh reporter signal, replicate 1": 1.27e5, "firefly Hh reporter signal, replicate 2": 3.33e5, "Renilla reference signal, replicate 1": 5050, "Renilla reference signal, replicate 2": 12407, "Outcome": "inactive"}

A stretch from the list above, as a working copy:
{"target": "CG15814", "dsRNA": "DRSC19730", "firefly Hh reporter signal, replicate 1": 90976, "firefly Hh reporter signal, replicate 2": 68005, "Renilla reference signal, replicate 1": 2698, "Renilla reference signal, replicate 2": 2381, "Outcome": "active"}
{"target": "karr", "dsRNA": "DRSC20681", "firefly Hh reporter signal, replicate 1": 1.27e5, "firefly Hh reporter signal, replicate 2": 3.33e5, "Renilla reference signal, replicate 1": 5050, "Renilla reference signal, replicate 2": 12407, "Outcome": "inactive"}

Continued:
{"target": "Semp1", "dsRNA": "DRSC01874", "firefly Hh reporter signal, replicate 1": 1.11e5, "firefly Hh reporter signal, replicate 2": 82864, "Renilla reference signal, replicate 1": 2708, "Renilla reference signal, replicate 2": 6369, "Outcome": "inactive"}
{"target": "PpN58A", "dsRNA": "DRSC04642", "firefly Hh reporter signal, replicate 1": 68025, "firefly Hh reporter signal, replicate 2": 64002, "Renilla reference signal, replicate 1": 2987, "Renilla reference signal, replicate 2": 2604, "Outcome": "inactive"}
{"target": "Cnb", "dsRNA": "DRSC08569", "firefly Hh reporter signal, replicate 1": 95397, "firefly Hh reporter signal, replicate 2": 63075, "Renilla reference signal, replicate 1": 4355, "Renilla reference signal, replicate 2": 2613, "Outcome": "inactive"}
{"target": "CG4928", "dsRNA": "DRSC19342", "firefly Hh reporter signal, replicate 1": 67936, "firefly Hh reporter signal, replicate 2": 69180, "Renilla reference signal, replicate 1": 1600, "Renilla reference signal, replicate 2": 1504, "Outcome": "inactive"}
{"target": "CG32816", "dsRNA": "DRSC17337", "firefly Hh reporter signal, replicate 1": 4.43e5, "firefly Hh reporter signal, replicate 2": 1.81e5, "Renilla reference signal, replicate 1": 22469, "Renilla reference signal, replicate 2": 2802, "Outcome": "inactive"}
